No constants are given. Whether binding was seen depends on the method and setting. In cells and extracts the contact can be indirect. These calls come from enrichment with a bait or labelling near it, and not all partners need be listed.
T1: E3 ubiquitin-protein ligase Midline-1 (UniProt O15344)
T1 sequence: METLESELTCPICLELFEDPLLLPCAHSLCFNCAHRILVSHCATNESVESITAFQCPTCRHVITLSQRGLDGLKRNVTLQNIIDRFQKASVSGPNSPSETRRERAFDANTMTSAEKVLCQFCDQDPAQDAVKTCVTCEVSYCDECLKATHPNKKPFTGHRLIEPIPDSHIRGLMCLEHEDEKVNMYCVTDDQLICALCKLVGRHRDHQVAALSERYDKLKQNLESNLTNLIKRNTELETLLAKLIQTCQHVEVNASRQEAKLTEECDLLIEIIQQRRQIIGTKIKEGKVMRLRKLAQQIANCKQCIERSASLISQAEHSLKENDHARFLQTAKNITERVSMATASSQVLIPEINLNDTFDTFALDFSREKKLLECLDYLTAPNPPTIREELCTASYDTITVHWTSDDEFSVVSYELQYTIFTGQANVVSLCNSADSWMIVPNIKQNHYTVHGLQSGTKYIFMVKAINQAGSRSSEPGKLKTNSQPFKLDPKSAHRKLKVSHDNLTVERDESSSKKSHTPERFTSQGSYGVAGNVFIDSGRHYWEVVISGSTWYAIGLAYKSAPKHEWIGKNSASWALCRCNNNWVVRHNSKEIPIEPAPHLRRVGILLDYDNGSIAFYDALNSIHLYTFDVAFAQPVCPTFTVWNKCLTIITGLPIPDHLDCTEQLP


Biological target: T1, E3 ubiquitin-protein ligase Midline-1
Assay: affinity purification with mass spectrometry; MID1-FLAG expressed in HEK293T, lysate in TKM buffer (20 mM Tris pH 7.4, 100 mM KCl, 5 mM MgCl2, 0.5% NP40, 1 mM DTT), anti-FLAG M1 agarose overnight at 4 °C, 6 washes; untransfected cells as control; Q-Exactive, MaxQuant, 1% FDR

| binding | Binder |
| --- | --- |
| binds | Serine/arginine repetitive matrix protein 1 (protein, UniProt Q8IYB3 1-904) MDAGFFRGTSAEQDNRFSNKQKKLLKQLKFAECLEKKVDMSKVNLEVIKPWITKRVTEILGFEDDVVIEFIFNQLEVKNPDSKMMQINLTGFLNGKNAREFMGELWPLLLSAQENIAGIPSAFLELKKEEIKQRQIEQEKLASMKKQDEDKDKRDKEEKESSREKRERSRSPRRRKSRSPSPRRRSSPVRRERKRSHSRSPRHRTKSRSPSPAPEKKEKTPELPEPSVKVKEPSVQEATSTSDILKVPKPEPIPEPKEPSPEKNSKKEKEKEKTRPRSRSRSKSRSRTRSRSPSHTRPRRRHRSRSRSYSPRRRPSPRRRPSPRRRTPPRRMPPPPRHRRSRSPVRRRRRSSASLSGSSSSSSSSRSRSPPKKPPKRTSSPPRKTRRLSPSASPPRRRHRPSPPATPPPKTRHSPTPQQSNRTRKSRVSVSPGRTSGKVTKHKGTEKRESPSPAPKPRKVELSESEEDKGGKMAAADSVQQRRQYRRQNQQSSSDSGSSSSSEDERPKRSHVKNGEVGRRRRHSPSRSASPSPRKRQKETSPRGRRRRSPSPPPTRRRRSPSPAPPPRRRRTPTPPPRRRTPSPPPRRRSPSPRRYSPPIQRRYSPSPPPKRRTASPPPPPKRRASPSPPPKRRVSHSPPPKQRSSPVTKRRSPSLSSKHRKGSSPSRSTREARSPQPNKRHSPSPRPRAPQTSSSPPPVRRGASSSPQRRQSPSPSTRPIRRVSRTPEPKKIKKAASPSPQSVRRVSSSRSVSGSPEPAAKKPPAPPSPVQSQSPSTNWSPAVPVKKAKSPTPSPSPPRNSDQEGGGKKKKKKKDKKHKKDKKHKKHKKHKKEKAVAAAAAAAVTPAAIAAATTTLAQEEPVAAPEPKKETESEAEDNLDDLEKHLREKALRSMRKAQVSPQS |
| binds | Cleavage and polyadenylation specificity factor subunit 7 (protein, UniProt Q8N684 1-471) MSEGVDLIDIYADEEFNQDPEFNNTDQIDLYDDVLTATSQPSDDRSSSTEPPPPVRQEPSPKPNNKTPAILYTYSGLRNRRAAVYVGSFSWWTTDQQLIQVIRSIGVYDVVELKFAENRANGQSKGYAEVVVASENSVHKLLELLPGKVLNGEKVDVRPATRQNLSQFEAQARKRECVRVPRGGIPPRAHSRDSSDSADGRATPSENLVPSSARVDKPPSVLPYFNRPPSALPLMGLPPPPIPPPPPLSSSFGVPPPPPGIHYQHLMPPPPRLPPHLAVPPPGAIPPALHLNPAFFPPPNATVGPPPDTYMKASAPYNHHGSRDSGPPPSTVSEAEFEDIMKRNRAISSSAISKAVSGASAGDYSDAIETLLTAIAVIKQSRVANDERCRVLISSLKDCLHGIEAKSYSVGASGSSSRKRHRSRERSPSRSRESSRRHRDLLHNEDRHDDYFQERNREHERHRDRERDRHH |

The next lines start with the binder.

| Binder | binding |
| --- | --- |
| U4/U6.U5 tri-snRNP-associated protein 1 (protein, UniProt O43290 1-800) MGSSKKHRGEKEAAGTTAAAGTGGATEQPPRHREHKKHKHRSGGSGGSGGERRKRSRERGGERGSGRRGAEAEARSSTHGRERSQAEPSERRVKREKRDDGYEAAASSKTSSGDASSLSIEETNKLRAKLGLKPLEVNAIKKEAGTKEEPVTADVINPMALRQREELREKLAAAKEKRLLNQKLGKIKTLGEDDPWLDDTAAWIERSRQLQKEKDLAEKRAKLLEEMDQEFGVSTLVEEEFGQRRQDLYSARDLQGLTVEHAIDSFREGETMILTLKDKGVLQEEEDVLVNVNLVDKERAEKNVELRKKKPDYLPYAEDESVDDLAQQKPRSILSKYDEELEGERPHSFRLEQGGTADGLRERELEEIRAKLRLQAQSLSTVGPRLASEYLTPEEMVTFKKTKRRVKKIRKKEKEVVVRADDLLPLGDQTQDGDFGSRLRGRGRRRVSEVEEEKEPVPQPLPSDDTRVENMDISDEEEGGAPPPGSPQVLEEDEAELELQKQLEKGRRLRQLQQLQQLRDSGEKVVEIVKKLESRQRGWEEDEDPERKGAIVFNATSEFCRTLGEIPTYGLAGNREEQEELMDFERDEERSANGGSESDGEENIGWSTVNLDEEKQQQDFSASSTTILDEEPIVNRGLAAALLLCQNKGLLETTVQKVARVKAPNKSLPSAVYCIEDKMAIDDKYSRREEYRGFTQDFKEKDGYKPDVKIEYVDETGRKLTPKEAFRQLSHRFHGKGSGKMKTERRMKKLDEEALLKKMSSSDTPLGTVALLQEKQKAQKTPYIVLSGSGKSMNANTITK | binds |
| U5 small nuclear ribonucleoprotein 40 kDa protein (protein, UniProt Q96DI7 1-357) MIEQQKRKGPELPLVPVKRQRHELLLGAGSGPGAGQQQATPGALLQAGPPRCSSLQAPIMLLSGHEGEVYCCKFHPNGSTLASAGFDRLILLWNVYGDCDNYATLKGHSGAVMELHYNTDGSMLFSASTDKTVAVWDSETGERVKRLKGHTSFVNSCYPARRGPQLVCTGSDDGTVKLWDIRKKAAIQTFQNTYQVLAVTFNDTSDQIISGGIDNDIKVWDLRQNKLTYTMRGHADSVTGLSLSSEGSYLLSNAMDNTVRVWDVRPFAPKERCVKIFQGNVHNFEKNLLRCSWSPDGSKIAAGSADRFVYVWDTTSRRILYKLPGHAGSINEVAFHPDEPIIISASSDKRLYMGEIQ | binds |
| RRP12-like protein (protein, UniProt Q5JTH9 1-1297) MGRSGKLPSGVSAKLKRWKKGHSSDSNPAICRHRQAARSRFFSRPSGRSDLTVDAVKLHNELQSGSLRLGKSEAPETPMEEEAELVLTEKSSGTFLSGLSDCTNVTFSKVQRFWESNSAAHKEICAVLAAVTEVIRSQGGKETETEYFAALMTTMEAVESPESLAAVAYLLNLVLKRVPSPVLIKKFSDTSKAFMDIMSAQASSGSTSVLRWVLSCLATLLRKQDLEAWGYPVTLQVYHGLLSFTVHPKPKIRKAAQHGVCSVLKGSEFMFEKAPAHHPAAISTAKFCIQEIEKSGGSKEATTTLHMLTLLKDLLPCFPEGLVKSCSETLLRVMTLSHVLVTACAMQAFHSLFHARPGLSTLSAELNAQIITALYDYVPSENDLQPLLAWLKVMEKAHINLVRLQWDLGLGHLPRFFGTAVTCLLSPHSQVLTAATQSLKEILKECVAPHMADIGSVTSSASGPAQSVAKMFRAVEEGLTYKFHAAWSSVLQLLCVFFEACGRQAHPVMRKCLQSLCDLRLSPHFPHTAALDQAVGAAVTSMGPEVVLQAVPLEIDGSEETLDFPRSWLLPVIRDHVQETRLGFFTTYFLPLANTLKSKAMDLAQAGSTVESKIYDTLQWQMWTLLPGFCTRPTDVAISFKGLARTLGMAISERPDLRVTVCQALRTLITKGCQAEADRAEVSRFAKNFLPILFNLYGQPVAAGDTPAPRRAVLETIRTYLTITDTQLVNSLLEKASEKVLDPASSDFTRLSVLDLVVALAPCADEAAISKLYSTIRPYLESKAHGVQKKAYRVLEEVCASPQGPGALFVQSHLEDLKKTLLDSLRSTSSPAKRPRLKCLLHIVRKLSAEHKEFITALIPEVILCTKEVSVGARKNAFALLVEMGHAFLRFGSNQEEALQCYLVLIYPGLVGAVTMVSCSILALTHLLFEFKGLMGTSTVEQLLENVCLLLASRTRDVVKSALGFIKVAVTVMDVAHLAKHVQLVMEAIGKLSDDMRRHFRMKLRNLFTKFIRKFGFELVKRLLPEEYHRVLVNIRKAEARAKRHRALSQAAVEEEEEEEEEEEPAQGKGDSIEEILADSEDEEDNEEEERSRGKEQRKLARQRSRAWLKEGGGDEPLNFLDPKVAQRVLATQPGPGRGRKKDHGFKVSADGRLIIREEADGNKMEEEEGAKGEDEEMADPMEDVIIRNKKHQKLKHQKEAEEEELEIPPQYQAGGSGIHRPVAKKAMPGAEYKAKKAKGDVKKKGRPDPYAYIPLNRSKLNRRKKMKLQGQFKGLVKAARRGSQVGHKNRRKDRRP | binds |
| Splicing factor, arginine/serine-rich 15 (protein, UniProt O95104 1-1147) MDAVNAFNQELFSLMDMKPPISRAKMILITKAAIKAIKLYKHVVQIVEKFIKKCKPEYKVPGLYVIDSIVRQSRHQFGTDKDVFGPRFSKNITATFQYLYLCPSEDKSKIVRVLNLWQKNGVFKIEIIQPLLDMAAGTSNAAPVAENVTNNEGSPPPPVKVSSEPPTQATPNSVPAVPQLPSSDAFAAVAQLFQTTQGQQLQQILQTFQQPPKPQSPALDNAVMAQVQAITAQLKTTPTQPSEQKAAFPPPEQKTAFDKKLLDRFDYDDEPEAVEESKKEDTTAVTTTAPAAAVPPAPTATVPAAAAPAAASPPPPQAPFGFPGDGMQQPAYTQHQNMDQFQPRMMGIQQDPMHHQVPLPPNGQMPGFGLLPTPPFPPMAQPVIPPTPPVQQPFQASFQAQNEPLTQKPHQQEMEVEQPCIQEVKRHMSDNRKSRSRSASRSPKRRRSRSGSRSRRSRHRRSRSRSRDRRRHSPRSRSQERRDREKERERRQKGLPQVKPETASVCSTTLWVGQLDKRTTQQDVASLLEEFGPIESINMIPPRGCAYIVMVHRQDAYRALQKLSRGNYKVNQKSIKIAWALNKGIKADYKQYWDVELGVTYIPWDKVKPEELESFCEGGMLDSDTLNPDWKGIPKKPENEVAQNGGAETSHTEPVSPIPKPLPVPVPPIPVPAPITVPPPQVPPHQPGPPVVGALQPPAFTPPLGIPPPGFGPGVPPPPPPPPFLRPGFNPMHLPPGFLPPGPPPPITPPVSIPPPHTPPISIPNSTIAGINEDTTKDLSIGNPIPTVVSGARGNAESGDSVKMYGSAVPPAAPTNLPTPPVTQPVSLLGTQGVAPGPVIGLQAPSTGLLGARPGLIPLQRPPGMPPPHLQRFPLMPPRPMPPHMMHRGPPPGPGGFAMPPPHGMKGPFPPHGPFVRPGGMPGLGGPGPGPGGPEDRDGRQQPPQQPQQQPQPQAPQQPQQQQQQQPPPSQQPPPTQQQPQQFRNDNRQQFNSGRDQERFGRRSFGNRVENDRERYGNRNDDRDNSNRDRREWGRRSPDRDRHRDLEERNRRSSGHRDRERDSRDRESRREKEEARGKEKPEVTDRAGGNKTVEPPISQVGNVDTASELEKGVSEAAVLKPSEELPAEATSSVEPEKDSGSAAEAPR | binds |

From article PMC5841321
